Assay results published in paper PMC10865405.
No constants are given. Whether binding was seen depends on the method and setting. In cells and extracts the contact can be indirect. Some binding calls cover weakened binding; strength is not graded here.

Sequences of proteins named here, by UniProt entry; tags and fusion partners are left off. A change or cut given only in a name is not applied to a line headed by its entry.
UniProt P03101: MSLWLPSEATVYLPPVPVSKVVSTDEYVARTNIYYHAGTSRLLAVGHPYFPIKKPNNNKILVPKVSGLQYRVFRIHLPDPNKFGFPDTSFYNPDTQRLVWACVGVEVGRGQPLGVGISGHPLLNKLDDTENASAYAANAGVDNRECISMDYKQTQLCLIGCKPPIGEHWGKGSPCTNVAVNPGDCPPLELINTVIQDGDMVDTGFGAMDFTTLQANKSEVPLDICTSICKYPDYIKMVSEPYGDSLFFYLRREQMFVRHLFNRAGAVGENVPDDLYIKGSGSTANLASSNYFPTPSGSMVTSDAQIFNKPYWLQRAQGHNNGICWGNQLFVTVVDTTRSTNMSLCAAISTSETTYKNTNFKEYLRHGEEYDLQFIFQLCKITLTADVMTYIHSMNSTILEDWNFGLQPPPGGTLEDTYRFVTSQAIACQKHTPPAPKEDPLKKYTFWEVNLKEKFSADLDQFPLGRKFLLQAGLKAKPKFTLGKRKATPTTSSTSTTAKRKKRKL
UniProt P36741: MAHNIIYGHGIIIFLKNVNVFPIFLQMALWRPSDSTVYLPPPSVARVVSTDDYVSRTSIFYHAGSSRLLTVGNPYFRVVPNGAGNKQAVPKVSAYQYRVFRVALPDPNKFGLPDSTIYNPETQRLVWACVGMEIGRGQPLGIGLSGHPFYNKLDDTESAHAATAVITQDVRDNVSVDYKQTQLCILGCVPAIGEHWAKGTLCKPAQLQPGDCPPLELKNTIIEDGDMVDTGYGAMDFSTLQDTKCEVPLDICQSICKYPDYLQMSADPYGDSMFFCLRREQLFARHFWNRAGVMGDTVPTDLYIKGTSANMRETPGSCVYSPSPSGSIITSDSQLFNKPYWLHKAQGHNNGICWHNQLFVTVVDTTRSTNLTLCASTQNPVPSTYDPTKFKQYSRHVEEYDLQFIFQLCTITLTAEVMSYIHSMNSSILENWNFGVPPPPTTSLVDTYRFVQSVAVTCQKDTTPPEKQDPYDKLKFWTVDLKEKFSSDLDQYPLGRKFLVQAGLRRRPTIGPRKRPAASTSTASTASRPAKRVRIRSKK
UniProt A0A3L7I2J9: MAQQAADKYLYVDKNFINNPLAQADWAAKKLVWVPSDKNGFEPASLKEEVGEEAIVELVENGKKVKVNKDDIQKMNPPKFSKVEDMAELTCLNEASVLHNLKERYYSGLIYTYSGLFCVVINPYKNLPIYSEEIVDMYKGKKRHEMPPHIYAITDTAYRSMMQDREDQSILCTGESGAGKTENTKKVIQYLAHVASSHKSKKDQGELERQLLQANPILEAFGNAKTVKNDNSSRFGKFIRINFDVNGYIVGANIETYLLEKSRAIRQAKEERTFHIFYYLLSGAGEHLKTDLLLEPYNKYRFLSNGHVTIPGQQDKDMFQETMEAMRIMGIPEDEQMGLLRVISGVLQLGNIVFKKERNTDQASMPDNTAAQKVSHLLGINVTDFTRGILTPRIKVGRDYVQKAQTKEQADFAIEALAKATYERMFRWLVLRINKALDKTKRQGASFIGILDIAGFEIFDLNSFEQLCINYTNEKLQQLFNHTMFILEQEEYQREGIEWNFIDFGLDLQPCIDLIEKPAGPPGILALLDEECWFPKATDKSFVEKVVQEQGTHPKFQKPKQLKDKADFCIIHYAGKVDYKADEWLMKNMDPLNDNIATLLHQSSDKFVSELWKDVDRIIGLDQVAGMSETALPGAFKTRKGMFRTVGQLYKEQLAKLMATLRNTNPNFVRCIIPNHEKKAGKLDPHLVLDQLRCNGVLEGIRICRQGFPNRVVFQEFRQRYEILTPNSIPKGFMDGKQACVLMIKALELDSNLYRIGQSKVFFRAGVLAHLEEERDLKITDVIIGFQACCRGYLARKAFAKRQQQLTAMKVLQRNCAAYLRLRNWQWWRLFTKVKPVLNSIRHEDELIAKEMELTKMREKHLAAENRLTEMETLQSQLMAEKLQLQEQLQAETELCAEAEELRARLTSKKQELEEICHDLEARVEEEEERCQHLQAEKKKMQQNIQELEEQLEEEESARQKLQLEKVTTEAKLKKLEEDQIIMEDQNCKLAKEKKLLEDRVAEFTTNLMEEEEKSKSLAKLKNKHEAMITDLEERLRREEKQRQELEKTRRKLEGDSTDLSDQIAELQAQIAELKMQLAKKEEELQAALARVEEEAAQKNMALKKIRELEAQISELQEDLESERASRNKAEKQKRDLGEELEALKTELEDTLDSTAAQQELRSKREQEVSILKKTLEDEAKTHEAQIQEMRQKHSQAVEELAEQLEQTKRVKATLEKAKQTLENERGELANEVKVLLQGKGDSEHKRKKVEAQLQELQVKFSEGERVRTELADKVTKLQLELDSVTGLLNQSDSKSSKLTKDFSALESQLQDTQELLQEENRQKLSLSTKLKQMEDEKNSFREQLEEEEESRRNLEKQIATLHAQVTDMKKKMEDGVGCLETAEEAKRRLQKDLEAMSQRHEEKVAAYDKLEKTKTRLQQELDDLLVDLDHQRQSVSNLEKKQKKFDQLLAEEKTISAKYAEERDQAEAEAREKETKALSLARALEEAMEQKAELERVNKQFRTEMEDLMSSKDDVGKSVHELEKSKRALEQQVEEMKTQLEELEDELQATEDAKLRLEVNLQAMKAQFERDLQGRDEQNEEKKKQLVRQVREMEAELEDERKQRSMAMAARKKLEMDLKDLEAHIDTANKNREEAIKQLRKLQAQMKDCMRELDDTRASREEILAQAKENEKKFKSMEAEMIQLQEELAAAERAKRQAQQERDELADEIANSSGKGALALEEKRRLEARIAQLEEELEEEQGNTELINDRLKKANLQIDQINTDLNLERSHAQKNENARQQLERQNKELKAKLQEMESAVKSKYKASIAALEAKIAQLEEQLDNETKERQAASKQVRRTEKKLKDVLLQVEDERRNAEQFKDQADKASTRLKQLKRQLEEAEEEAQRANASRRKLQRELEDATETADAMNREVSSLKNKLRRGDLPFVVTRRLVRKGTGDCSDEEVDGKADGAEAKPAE

Assays:
[1] = molecular target: HPV16 pseudoviruses (PsVs) (human papillomavirus type 16) (UniProt P03101); test: co-IP; cell lysates of Lec1 cells incubated with HPV45 or HPV16 PsVs (100 μl, 10^4 RLU/μl) for 90 min, then with anti-L1 antibody coupled protein A/G magnetic beads for 90 min; L1 and myosin-9 on the beads by Western blot; only the target purified
[2] = molecular target: HPV45 pseudoviruses (PsVs) (human papillomavirus type 45) (UniProt P36741); test: as above

## Chinese hamster myosin-9 (NMHC-IIA) (from UniProt A0A3L7I2J9 1-1960)
[1]
  binding: binds
[2]
  binding: binds
